PubChem BioAssay AID540275 (National Center for Advancing Translational Sciences (NCATS), 2011)
About 620 (0.19%) of roughly 320,000 compounds were called active. The shares of active, inactive and inconclusive entries below differ from those in the screen. Cut-off read from the data, not from the text of the source: active = activation above about 80%; inconclusive = between about 30% and that limit; inactive = weaker than that.

Protein sequences, listed by entry. Tags and fused reporters are not part of them.
UniProt Q8NER1, whole entry, looked up: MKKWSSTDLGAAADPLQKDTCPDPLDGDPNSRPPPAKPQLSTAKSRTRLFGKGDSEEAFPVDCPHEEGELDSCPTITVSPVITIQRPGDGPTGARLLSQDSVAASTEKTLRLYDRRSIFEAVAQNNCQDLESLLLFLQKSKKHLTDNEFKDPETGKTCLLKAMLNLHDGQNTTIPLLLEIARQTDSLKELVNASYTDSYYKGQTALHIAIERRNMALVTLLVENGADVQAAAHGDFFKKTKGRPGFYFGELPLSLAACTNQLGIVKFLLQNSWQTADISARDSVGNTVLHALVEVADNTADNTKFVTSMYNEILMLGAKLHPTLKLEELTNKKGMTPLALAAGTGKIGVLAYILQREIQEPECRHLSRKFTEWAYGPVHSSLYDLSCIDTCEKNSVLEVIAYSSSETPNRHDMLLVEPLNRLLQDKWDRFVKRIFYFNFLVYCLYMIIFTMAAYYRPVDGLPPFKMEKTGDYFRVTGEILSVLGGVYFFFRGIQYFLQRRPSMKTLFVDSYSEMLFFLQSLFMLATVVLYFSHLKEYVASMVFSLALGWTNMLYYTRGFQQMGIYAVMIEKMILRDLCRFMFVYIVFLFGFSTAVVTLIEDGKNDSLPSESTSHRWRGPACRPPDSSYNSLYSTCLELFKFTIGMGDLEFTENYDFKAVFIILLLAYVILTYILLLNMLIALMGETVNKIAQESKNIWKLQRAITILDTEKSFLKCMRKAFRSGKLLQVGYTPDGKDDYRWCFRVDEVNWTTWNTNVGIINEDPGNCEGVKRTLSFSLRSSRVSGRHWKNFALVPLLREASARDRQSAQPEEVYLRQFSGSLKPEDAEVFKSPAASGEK

target: Transient receptor potential cation channel subfamily V member 1 (Homo sapiens) (UniProt Q8NER1); assay: HTS Assay for Compounds that Act as Agonists of the Vanilloid Receptor 1; details: TRPV1-expressing cells, Fluo-8 calcium influx, agonist mode; at 8.33 µM, hits give high values; note: 0% is about no effect
Summary of the method: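 TRPV1-expressing cells were cultured overnight at 35.5C and loaded with Fluo-8 calcium dye for 40 to 90 min at room temperature. After a 10 s baseline, compound was added and calcium influx was read kinetically for 3 min (ex 480/em 520 nm).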

Compound	activation
COc1cccc2oc3cc(C#CC4(O)CCCCC4)ccc3c(=O)c12	inconclusive: 50.4%
S=C(Nc1ccc(Oc2ccccc2)cc1)NC1CCCCC1	inconclusive: 47.4%
COc1cccc(-c2nc(-c3ccc(NC(=O)c4cccs4)cc3)no2)c1	inactive: 3.49%
Cc1ccc2nc(SCC(=O)Nc3c(F)cccc3F)[nH]c2c1	inconclusive: 36.7%
COc1ccc(CNC(=O)CN2CCN(c3cccc(C)c3C)CC2)cc1	active: 80%
Cc1sc(NC(=O)c2ccccc2F)c(CN2CCCCC2)c1C	inconclusive: 34.8%
Cc1ccnc(NC(=O)Nc2ccc(Br)cc2Cl)c1	inactive: -7.06%
O=C(NCc1nnnn1-c1ccc(F)c(F)c1)c1ccc2ccccc2c1	inconclusive: 63.1%
N#Cc1ccc(S(=O)(=O)N2CCCN(c3ccc(C(F)(F)F)cn3)CC2)cc1	active: 81.2%
C/C(Cn1cnc([N+](=O)[O-])n1)=N\NC(=O)c1ccc(O)cc1O	inconclusive: 68%
COC(=O)c1ccc(OC)c(CN2CCCN(Cc3cc(C)ccc3C)S2(=O)=O)c1	inactive: 18%
CC(C)CCOP(=O)(c1ccccc1)c1ccccc1	inconclusive: 31.9%
COc1cccc(/C=C2/C(=O)NN(c3ccc(Br)cc3)C2=O)c1O	inactive: 0.17%
CC12CCC(c3n[nH]c(=S)nc31)C2(C)C (configuration not stated)	inactive: 7.59%
O=C(c1cc(-c2ccc(O)cc2)on1)N1CCCCCC1	inactive: -3.67%
O=C(Nc1cccc(Cl)c1)Nc1sccc1-c1nc2ccccc2s1	inactive: 5.8%
NNC(=O)c1ccc(O)cc1O	inconclusive: 57.7%
COc1ccc(C2c3[nH]c4ccccc4c3C[C@H]3C(=O)N(C4CCN(Cc5ccccc5)CC4)CC(=O)N23)cc1OC (some centres not stated)	inactive: -1.38%
C=CCOc1ccc2c(CC)cc(=O)oc2c1C	inconclusive: 30.7%
CCOc1ccc(CNCCNC(=O)c2nonc2N)cc1	inactive: -2.63%
CC1CCCCC1NC(=S)Nc1ccc(Cl)cc1Cl (configuration not stated)	inactive: 18.3%
CCCCC(NC(=O)Cc1c(C)c2cc3c4c(oc3cc2oc1=O)CCCC4)C(=O)O (configuration not stated)	inactive: 15.7%
O=C(COC(=O)/C=C/c1ccccc1Cl)NCc1ccccc1	inconclusive: 40.2%

Compound	activation
FC(F)Sc1ccc(NC(=S)NCC2CCCCC2)cc1	inconclusive: 60.4%
CNCc1ccccc1Sc1cccc(O)c1	inactive: 0.793%
CCC(=O)OC1CC(C)N(C(=O)c2ccccc2)c2ccc(C)cc21 (configuration not stated)	inconclusive: 32.6%
CCOC(=O)c1sc(-c2ccc(OC)cc2)cc1NC(C)=O	inactive: 6.07%
C=CCn1cccc(C(=O)Nc2ccc(OCC)cc2)c1=O	inconclusive: 44.7%
CC(C)(CO)NC(=O)C12CC3CC(CC(Br)(C3)C1)C2	inactive: 4.05%
Cc1sc2ncnc(N3CCC(C(=O)Nc4ccc(F)cc4Cl)CC3)c2c1C	inactive: 1.84%
COc1cccc(CNC(=O)C2CCCN(C(=O)c3ccc(Cl)cc3)C2)c1 (configuration not stated)	inconclusive: 53.7%
CCc1ccc(-n2c(C)nc3cc(C(=O)NCc4cccnc4)ccc32)cc1	inconclusive: 45.4%
COC(=O)c1ccc(C(=O)OC)c(NC(=O)CSCc2ccc(Cl)cc2)c1	inconclusive: 31.9%
COc1cc(OC)cc(-c2cc3nc(C)c(CCC(=O)O)c(C)n3n2)c1	inactive: 0.497%
COc1ccc2oc(-c3ccccc3)c(C(=O)N3CCOCC3)c2c1	inconclusive: 73.1%
CN(C)C(=O)c1cn(-c2ccccc2)c(=O)c2ccccc12	inactive: -2.51%
Cc1cccc(N2C(=O)CC(SC(=Nc3ccccc3)Nc3ccccc3)C2=O)c1 (configuration not stated)	inconclusive: 31.6%
COc1ccccc1CNC(c1ccccc1)c1ccccc1	inactive: 7.61%
O=C(Nc1ccccc1)N1CCSc2ccccc21	inconclusive: 31.2%
COc1ccc(OC)c(CCNC(=O)CCCc2nnc3n(C)c(=O)c4sccc4n23)c1	inactive: -1.57%
CN(C(=O)COc1ccccc1C(=O)NCCOc1ccccc1)c1ccccc1	inconclusive: 35.6%
O=C(COC(=O)c1ccccc1C(=O)c1ccc(Cl)cc1)NCc1ccccc1	inconclusive: 44.6%
COc1ccccc1N(C)S(=O)(=O)c1ccc(C(=O)Nc2nc(C)c(C(C)=O)s2)cc1	inconclusive: 40.9%
COc1ccc(OCC(=O)N/N=C2/C=C(C)CC2)cc1	inactive: 3.9%
Cc1cccc(C)c1-n1c(C)cc(/C=N/NC(N)=S)c1C	inactive: -2.87%
Cc1cccc(-n2c(N)c(-c3nc4ccccc4n3C)c3nc4ccccc4nc32)c1	inactive: 6.79%

Quoted from the listing:
CCOC(=O)c1sc(-c2ccc(OC)cc2)cc1NC(C)=O – activation: inactive: 6.07%
O=C(Nc1ccccc1)N1CCSc2ccccc21 – activation: inconclusive: 31.2%
Cc1cccc(N2C(=O)CC(SC(=Nc3ccccc3)Nc3ccccc3)C2=O)c1 (configuration not stated) – activation: inconclusive: 31.6%

(further entries)

Compound	activation
Cc1cc(Cl)ccc1OCCCC(=O)N1CCCc2ccccc21	inactive: 0.204%
Cc1onc(-c2ccccc2)c1C(=O)c1c[nH]c(C(=O)NCc2ccncc2)c1	inactive: 9.55%
O=C(NCCCN1CCOCC1)c1ccc(-c2ccc(Cl)cc2)o1	inconclusive: 34.3%
CC1=C(C)/C(=N\OS(=O)(=O)c2ccccc2)C=CC1=O	inconclusive: 48.6%
COc1cc(OC)cc(C(=O)N[C@H](C(=O)N2CCc3ccccc32)C(C)C)c1	inconclusive: 33.1%
COc1ccccc1N1CCN(C(=O)CSc2nc3ccccc3c(=O)n2CC2CCCO2)CC1 (configuration not stated)	inactive: 0.271%
O=C(c1cc(-c2ccccc2)nc2ccccc12)N1CCN(c2ccccc2O)CC1	inactive: -0.769%
COc1ccc(/C=C2\CCC/C(=C\c3ccc(OC)c(OC)c3OC)C2=O)c(OC)c1OC	inactive: 7.2%
CCOC(=O)C(CSCC(=O)c1ccc(Br)cc1)NC(=O)OC(C)(C)C (configuration not stated)	inconclusive: 34.4%
COc1cc(NC(=O)c2cccs2)c(C(=O)OCC(=O)NCc2ccccc2)cc1OC	inconclusive: 45.4%
COc1ccc(CNC(=O)COC(=O)CCCOc2ccc(Cl)cc2Cl)cc1OC	inconclusive: 65.2%
CC(C)c1cc(C(=O)N2CCCC(C(=O)c3ccc4ccccc4c3)C2)on1 (configuration not stated)	inconclusive: 40.7%
CCOc1cccc(-c2nn3c(-c4ccccn4)nnc3s2)c1	inconclusive: 36.9%
Cc1ccccc1NC(=S)N(CCN1CCCCCC1)Cc1cccs1	inactive: 15.6%
O=C(CCC1CCCCC1)N1CCN(Cc2ccc3c(c2)OCO3)CC1	inconclusive: 38.4%
CC(=O)c1c(C)[nH]c(C(=O)COc2ccc3c(C)cc(=O)oc3c2)c1C	inactive: -2.89%
Nc1nonc1-n1nnc(C(=O)N/N=C/c2ccoc2)c1CSc1ccc(Cl)cc1	inconclusive: 62.2%
N#CC1CCCc2c1[nH]c1ccc([N+](=O)[O-])cc21 (configuration not stated)	inconclusive: 62.8%
C/C(=N\NC(N)=O)C1(C)CCCCC1	inactive: -12%
CCC(C)NC(=S)Nc1ccc(C(=O)OC)cc1 (configuration not stated)	inconclusive: 41.9%
CC(C)(C)c1ccc(OCCCC(=O)Nc2ccc(S(N)(=O)=O)cc2)cc1	inconclusive: 55%
CCOc1ccc(C2C(C#N)=C(N)SC(N)=C2C#N)cc1OCC	inactive: -3.09%
CN(C)C(CNC(=O)c1c(F)cccc1Cl)c1ccco1 (configuration not stated)	inactive: -1.84%

Compound	activation
CSCc1ccc(C(=O)NCCSc2ccc(Br)cc2)cc1	inconclusive: 68.6%
Cc1ccc2nc(N3C(=O)C(O)=C(C(=O)c4cc5ccccc5o4)C3c3cccs3)sc2c1 (configuration not stated)	inactive: 12.7%
Cc1ccc(-n2c(SCC(=O)c3c(N)n(C)c(=O)n(C)c3=O)nc3sc4c(c3c2=O)CCCC4)c(C)c1	inconclusive: 48.1%
CN(c1ccccc1)S(=O)(=O)c1ccc(C(=O)N2CCCC(C(F)(F)F)C2)cc1 (configuration not stated)	inconclusive: 32.2%
O=C(NC1CCCCC1)c1cccc(OCc2ccccc2)c1	inconclusive: 50.2%
Cc1ccc(-c2csc(NCCn3c(-c4ccncc4)nc4ccccc43)n2)cc1	inconclusive: 58.2%
CCc1cc(-c2onc(C)c2-c2cscn2)c(O)cc1OC	inactive: 1.51%
COc1cccc(CNC(=O)COc2ccc(C(=O)c3ccccc3)cc2)c1	inconclusive: 39%
COc1ccc(-c2nc3ccccc3c(=O)n2CCOc2c(C)cccc2C)cc1	inactive: 1.45%
CCOC(=O)C1CCCN(CC(=O)Nc2c(C(=O)OC)[nH]c3ccccc23)C1 (configuration not stated)	inconclusive: 39%
Cc1cccc(NC(=S)NC(=O)Cc2ccccc2)c1C	inconclusive: 49.5%
Cc1cc(SCC(=O)c2cc3ccccc3o2)nc2ccccc12	inactive: 6.34%
Cc1ccc(-n2c(-c3ccccc3)n[nH]c2=S)c(C)c1	inactive: 2.42%
OCC1(Cc2ccccc2)CCN(Cc2ccc(-c3ccco3)cc2)CC1	inactive: -0.154%
CC/C(=N\NC(=O)C1CCCC1)c1cccc(Br)c1	inconclusive: 43.9%
CCC(C(=O)Nc1ccc2c(c1)OCCO2)c1ccccc1 (configuration not stated)	inconclusive: 31.3%
O=C(Nc1cccnc1)Nc1ccccc1Cl	inconclusive: 52.5%
C/C(=N\NC(=O)COc1ccc(C)cc1C(C)C)c1ccc(-n2ccnc2)cc1	inconclusive: 41.8%
Cc1ccc(-c2nn(-c3ccccc3)cc2C(=O)N2CCOCC2)cc1C	inconclusive: 42.7%
CC(/C=C/c1ccccc1)=N\NC(=O)CNC(=O)c1ccccc1Cl	inactive: -0.902%
COc1cc(/C=N/NC(=O)c2ccc(NC(=O)C3CCCCC3)cc2)ccc1O	inconclusive: 55.8%
CCOC(=O)/C(O)=C/c1ncc(C(F)(F)F)cc1Cl	inactive: 9.75%
COc1cccc(-c2ccc(NC(=O)C3CCCN(CCCn4nc(C)cc4C)C3)cc2)c1 (configuration not stated)	inactive: 4.32%
